Test results reported in article PMC8939790.
Results are given in words; binding and its absence hold for the method and conditions named. In cells and extracts the contact can be indirect. A result given as binding can be weak or reduced; the word gives no strength.

By UniProt entry, the sequences of proteins in these tests, tags left out. Where a name states a change or a piece, a line headed by the entry shows the natural chain unless it says otherwise.
UniProt A0A3S5H4X0: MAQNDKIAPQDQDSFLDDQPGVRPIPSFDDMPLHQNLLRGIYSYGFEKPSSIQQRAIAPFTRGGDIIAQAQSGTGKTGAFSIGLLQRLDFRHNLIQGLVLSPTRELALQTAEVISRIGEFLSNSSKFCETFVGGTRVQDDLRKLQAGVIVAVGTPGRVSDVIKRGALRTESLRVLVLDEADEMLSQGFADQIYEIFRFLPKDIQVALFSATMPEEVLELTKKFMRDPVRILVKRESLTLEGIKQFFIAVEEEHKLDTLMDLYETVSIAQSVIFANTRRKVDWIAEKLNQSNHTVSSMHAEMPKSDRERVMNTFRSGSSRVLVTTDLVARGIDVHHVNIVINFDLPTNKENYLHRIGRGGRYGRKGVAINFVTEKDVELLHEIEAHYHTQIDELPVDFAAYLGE

Target: GST-tagged Leishmania donovani profilin (Leishmania donovani)
Test: pull-down; purified GST-LdPfn or GST alone on glutathione-Sepharose beads with L. donovani promastigote lysate; input, unbound, wash and eluate fractions blotted with anti-eIF4A1 antibodies; only the target purified

“Eukaryotic initiation factor 4A-1 (from UniProt A0A3S5H4X0)” was tested, and the binding was “binds”.
